Results on one substance are retold here after paper PMC12598616, “Design and optimization of caspase-1-responsive fluorescent probes for pyroptosis imaging and anti-pyroptosis drug screening” (Chemical Science, 2025).

The data set relates to THP-1 cells. Briefly: Subcellular localization of FPy1 (co-staining). The data set is classed as cell-based. The settings on record: FPy1 5 μM, LPS 1 μg/mL and Nig 10 μM.

In the case of “–FLTDG– [FPy1, RhoB donor, hNR quencher]”, the intracellular distribution result is reported as “predominantly exhibited a diffuse intracellular distribution”. Also, the “Pearson's correlation coefficient, endoplasmic reticulum” value (ER-Tracker Green) was 0.4448. Also, the “Pearson's correlation coefficient, Golgi apparatus” value (Golgi-Tracker Green) is 0.4320. The “Pearson's correlation coefficient, lysosomes” value (Lyso-Tracker Green) is given as 0.5682. The “Pearson's correlation coefficient, mitochondria” value (Mito-Tracker Green) is on record as 0.4954.
